The supplement of paper PMC8846439
Where a name gives a salt, the structure may show the parent alone. This is one part of the list. Single values are uncertain, as repeats are few or missing.

Test system: Trypanosoma brucei brucei bloodstream form L262P (kDNA-independent)
Assay: viability Z-score (nuclei count per well, median-polish normalised, relative to plate distribution); higher = more viable parasites (negative = growth inhibition)
Conditions: 4 days; compound concentration: 10 µM (some Prestwick/PKE rows may be 1 µM / not distinguished)

SMILES	viability Z-score
CC(C)(C)c1cc(C=C(C#N)C#N)cc(C(C)(C)C)c1O	-3.03
N#C/C3=C/C([Cl])=C(CN1CCN(CC1)C=2C=CC=CC=2OC)C=C3	-4.34
CN(C(=O)c1ccco1)c1ccc(Cl)cc1C(=O)c1ccccc1	-3.65
O=P1(N(CCCl)CCCl)NCCCO1 (centres undefined) [Cyclophosphamide]	-3.98
CN1C[C@H](C(=O)N[C@]2(C)O[C@@]3(O)[C@@H]4CCCN4C(=O)[C@H](Cc4ccccc4)N3C2=O)CC2c3cccc4[nH]cc(c34)C[C@H]21.CN1C[C@H](C(=O)N[C@]2(C)O[C@@]3(O)[C@@H]4CCCN4C(=O)[C@H](Cc4ccccc4)N3C2=O)C[C@@H]2c3cccc4[nH]cc(c34)C[C@H]21 (some centres undefined) [Dihydroergotamine tartrate]	-1.21
COc1ccc(CCN2CCC(Nc3nc4ccccc4n3Cc3ccc(F)cc3)CC2)cc1 [Astemizole]	-2.01
O[C@@]([H])(CN(CC)CC)C1=CC=C(C=C1)[C@]2([H])CCCC2	-5.48
CC[C@@]1([C@@H]2O[C@@H]([C@H]3O[C@@](O)(CO)[C@H](C)C[C@@H]3C)C[C@@H]2C)CC[C@H]([C@]2(C)CC[C@]3(C[C@H](O)[C@@H](C)[C@@H]([C@@H](C)[C@@H](OC)[C@H](C)C(=O)[O-])O3)O2)O1 [Monensin sodium salt]	-2.1
C[C@@]12C[C@@H](O)CCN1CCc1ccccc12	-1.48

Rewritten in markdown: part of the list above.

| SMILES | viability Z-score |
| --- | --- |
| CC(C)(C)c1cc(C=C(C#N)C#N)cc(C(C)(C)C)c1O | -3.03 |
| N#C/C3=C/C([Cl])=C(CN1CCN(CC1)C=2C=CC=CC=2OC)C=C3 | -4.34 |
